The supplement of paper PMC6078165
The reference is the same well before dosing, and untreated signal decays as well.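 Labels refer to human fibroblasts, largely primary: uterine (C12385, HUF), lung (H6013), bone (Hs27A), adrenal (HADF), skin (WS1), plus mammary HMF and breast cancer-associated Hs343T. Cancer lines are basal-like or mesenchymal-like triple-negative breast cancer. The paper counts as hits responses shifting over 3x the replicate standard deviation. The tissue of the other fibroblasts is not given here.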

System: HCC1143
Test: relative JC-1 red fluorescence (viability) vs pre-drug, coculture with fibroblast (fraction); higher = more viable cancer cells
Protocol: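 JC-1 labelled TNBC cells cocultured 1:1 (1,500 cells each) with CellTrace Violet stained primary or stromal fibroblasts in 384-well plates in FluoroBrite medium, treated with one of 42 anticancer drugs at 0.1, 1, 10 or 100 uM. JC-1 red fluorescence (mitochondrial integrity in cancer cells only) was read by plate reader every 8 h for 72 h. Values are normalised to each well's pre-drug value. The stock of one drug was tenfold lower, so its dose labels may be too high.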

CS(=O)(=O)CCNCc1ccc(-c2ccc3ncnc(Nc4ccc(OCc5cccc(F)c5)c(Cl)c4)c3c2)o1 [Lapatinib]
relative JC-1 red fluorescence
Settings | 8 h | 16 h | 24 h | 32 h | 40 h | 48 h | 56 h | 64 h | 72 h
0.1 µM, coculture fibroblast: C12385 | 0.85366 | 0.785 | 0.693 | 0.606 | 0.534 | 0.479 | 0.438 | 0.392 | 0.37
0.1 µM, coculture fibroblast: H6013 | 0.774 | 0.678 | 0.625 | 0.6026 | 0.522 | 0.503 | 0.466 | 0.444 | 0.4158
0.1 µM, coculture fibroblast: H6019 | 0.825 | 0.724 | 0.688 | 0.622 | 0.59 | 0.565 | 0.516 | 0.472 | 0.4331
0.1 µM, coculture fibroblast: H6076 | 0.795 | 0.712 | 0.679 | 0.6939 | 0.627 | 0.63 | 0.602 | 0.589 | 0.611
0.1 µM, coculture fibroblast: H6231 | 0.806 | 0.848 | 0.749 | 0.604 | 0.648 | 0.611 | 0.574 | 0.534 | 0.507
0.1 µM, coculture fibroblast: HADF | 0.732 | 0.654 | 0.619 | 0.616 | 0.53 | 0.497 | 0.467 | 0.436 | 0.427
0.1 µM, coculture fibroblast: HCFa | 0.7881 | 0.706 | 0.66 | 0.638 | 0.558 | 0.53 | 0.482 | 0.439 | 0.418
0.1 µM, coculture fibroblast: HCPF | 0.793 | 0.799 | 0.729 | 0.638 | 0.653 | 0.618 | 0.587 | 0.554 | 0.534
0.1 µM, coculture fibroblast: HHSteC | 0.828 | 0.742 | 0.701 | 0.672 | 0.591 | 0.564 | 0.522 | 0.486 | 0.449
0.1 µM, coculture fibroblast: HMF | 0.797 | 0.847 | 0.7594 | 0.6779 | 0.665 | 0.6304 | 0.5942 | 0.562 | 0.54
0.1 µM, coculture fibroblast: HPFa | 0.935 | 0.857 | 0.806 | 0.726 | 0.657 | 0.619 | 0.561 | 0.499 | 0.456
0.1 µM, coculture fibroblast: HUF | 0.8919 | 0.796 | 0.741 | 0.659 | 0.6153 | 0.5842 | 0.5388 | 0.50326 | 0.4707
0.1 µM, coculture fibroblast: Hs5 | 0.856 | 0.817 | 0.791 | 0.786 | 0.712 | 0.686 | 0.665 | 0.639 | 0.644
0.1 µM, coculture fibroblast: Hs27A | 0.7033 | 0.621 | 0.578 | 0.5982 | 0.472 | 0.4454 | 0.4034 | 0.365 | 0.356
0.1 µM, coculture fibroblast: Hs343T | 0.814 | 0.821 | 0.77 | 0.71 | 0.69 | 0.666 | 0.621 | 0.588 | 0.564
0.1 µM, coculture fibroblast: WS1 | 0.8534 | 0.791 | 0.736 | 0.67 | 0.613 | 0.564 | 0.513 | 0.473 | 0.451
1 µM, coculture fibroblast: C12385 | 0.832 | 0.7747 | 0.701 | 0.633 | 0.563 | 0.513 | 0.478 | 0.44 | 0.42
1 µM, coculture fibroblast: H6013 | 0.772 | 0.735 | 0.7 | 0.676 | 0.616 | 0.605 | 0.572 | 0.56 | 0.546
1 µM, coculture fibroblast: H6019 | 0.871 | 0.822 | 0.791 | 0.742 | 0.728 | 0.711 | 0.677 | 0.644 | 0.626
1 µM, coculture fibroblast: H6076 | 0.814 | 0.8496 | 0.7953 | 0.726 | 0.69 | 0.66 | 0.62 | 0.592 | 0.585
1 µM, coculture fibroblast: H6231 | 0.824 | 0.7965 | 0.7437 | 0.636 | 0.634 | 0.59 | 0.5583 | 0.5204 | 0.515
1 µM, coculture fibroblast: HADF | 0.745 | 0.665 | 0.629 | 0.622 | 0.528 | 0.5 | 0.479 | 0.452 | 0.444
1 µM, coculture fibroblast: HCFa | 0.804 | 0.75 | 0.713 | 0.695 | 0.616 | 0.588 | 0.538 | 0.504 | 0.476
1 µM, coculture fibroblast: HCPF | 0.814 | 0.8229 | 0.783 | 0.666 | 0.694 | 0.65 | 0.61 | 0.585 | 0.577
1 µM, coculture fibroblast: HHSteC | 0.841 | 0.776 | 0.719 | 0.668 | 0.587 | 0.557 | 0.517 | 0.481 | 0.442
1 µM, coculture fibroblast: HMF | 0.8381 | 0.91 | 0.86 | 0.737 | 0.769 | 0.728 | 0.687 | 0.641 | 0.61
1 µM, coculture fibroblast: HPFa | 0.929 | 0.8618 | 0.8517 | 0.7796 | 0.7195 | 0.6961 | 0.65 | 0.61796 | 0.5813
1 µM, coculture fibroblast: HUF | 0.874 | 0.799 | 0.75 | 0.683 | 0.639 | 0.613 | 0.569 | 0.542 | 0.514
1 µM, coculture fibroblast: Hs5 | 0.889 | 0.899 | 0.897 | 0.89 | 0.833 | 0.807 | 0.792 | 0.781 | 0.765
1 µM, coculture fibroblast: Hs27A | 0.7808 | 0.7564 | 0.708 | 0.72 | 0.58 | 0.558 | 0.514 | 0.498 | 0.509
1 µM, coculture fibroblast: Hs343T | 0.8194 | 0.869 | 0.802 | 0.688 | 0.681 | 0.6344 | 0.577 | 0.542 | 0.517
1 µM, coculture fibroblast: WS1 | 0.825 | 0.755 | 0.698 | 0.607 | 0.551 | 0.51 | 0.475 | 0.449 | 0.426
